According to paper doi:10.1101/2023.02.03.527063 (bioRxiv, 2023):
No constants are given. Whether binding was seen depends on the method and setting. Binding seen in cells or lysates may run through a third protein. These calls come from enrichment with a bait or labelling near it, and not all partners need be listed.

By UniProt entry, the sequences of proteins in these tests, tags left out.
UniProt Q8TAQ2: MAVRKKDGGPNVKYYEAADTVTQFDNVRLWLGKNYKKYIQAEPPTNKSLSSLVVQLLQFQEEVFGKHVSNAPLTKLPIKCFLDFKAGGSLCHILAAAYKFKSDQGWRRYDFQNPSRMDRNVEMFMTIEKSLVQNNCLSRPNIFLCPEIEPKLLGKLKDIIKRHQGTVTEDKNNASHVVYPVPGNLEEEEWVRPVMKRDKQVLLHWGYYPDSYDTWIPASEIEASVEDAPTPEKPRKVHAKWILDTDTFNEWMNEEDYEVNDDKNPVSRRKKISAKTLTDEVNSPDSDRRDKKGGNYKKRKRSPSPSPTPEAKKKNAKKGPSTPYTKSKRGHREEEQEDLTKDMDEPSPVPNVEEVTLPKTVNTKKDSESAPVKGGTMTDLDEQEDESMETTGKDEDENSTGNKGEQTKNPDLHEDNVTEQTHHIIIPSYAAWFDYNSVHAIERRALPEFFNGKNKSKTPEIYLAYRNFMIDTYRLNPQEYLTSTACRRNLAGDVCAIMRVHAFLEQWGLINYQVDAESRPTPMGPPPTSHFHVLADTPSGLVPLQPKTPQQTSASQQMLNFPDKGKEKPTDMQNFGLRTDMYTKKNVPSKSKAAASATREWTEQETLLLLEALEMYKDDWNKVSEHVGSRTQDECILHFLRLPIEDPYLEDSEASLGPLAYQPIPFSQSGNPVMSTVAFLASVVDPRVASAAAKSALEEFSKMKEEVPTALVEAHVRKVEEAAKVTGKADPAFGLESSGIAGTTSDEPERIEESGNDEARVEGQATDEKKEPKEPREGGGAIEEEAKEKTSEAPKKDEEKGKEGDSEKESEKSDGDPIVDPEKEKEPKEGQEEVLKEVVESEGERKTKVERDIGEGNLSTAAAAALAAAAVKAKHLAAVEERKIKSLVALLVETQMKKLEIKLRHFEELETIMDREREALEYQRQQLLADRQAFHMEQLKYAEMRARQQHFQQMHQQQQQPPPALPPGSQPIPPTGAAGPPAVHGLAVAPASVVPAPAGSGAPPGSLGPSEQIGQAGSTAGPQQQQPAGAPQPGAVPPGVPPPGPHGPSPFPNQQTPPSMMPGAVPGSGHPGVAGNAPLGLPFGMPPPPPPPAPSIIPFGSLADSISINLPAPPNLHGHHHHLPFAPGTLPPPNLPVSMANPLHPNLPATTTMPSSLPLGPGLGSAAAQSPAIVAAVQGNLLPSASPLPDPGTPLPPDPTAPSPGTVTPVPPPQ
UniProt Q969G3: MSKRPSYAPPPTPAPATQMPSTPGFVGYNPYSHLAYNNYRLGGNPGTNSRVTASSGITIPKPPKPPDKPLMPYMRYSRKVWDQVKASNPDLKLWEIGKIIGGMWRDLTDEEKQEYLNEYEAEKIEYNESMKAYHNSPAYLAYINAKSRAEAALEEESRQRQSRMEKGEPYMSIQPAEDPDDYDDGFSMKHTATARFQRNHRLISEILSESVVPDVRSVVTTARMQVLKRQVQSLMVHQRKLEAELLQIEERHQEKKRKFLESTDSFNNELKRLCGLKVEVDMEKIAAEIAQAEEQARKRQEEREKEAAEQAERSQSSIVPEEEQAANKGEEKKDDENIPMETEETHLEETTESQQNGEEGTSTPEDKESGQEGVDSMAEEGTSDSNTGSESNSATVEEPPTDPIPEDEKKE
UniProt Q12824: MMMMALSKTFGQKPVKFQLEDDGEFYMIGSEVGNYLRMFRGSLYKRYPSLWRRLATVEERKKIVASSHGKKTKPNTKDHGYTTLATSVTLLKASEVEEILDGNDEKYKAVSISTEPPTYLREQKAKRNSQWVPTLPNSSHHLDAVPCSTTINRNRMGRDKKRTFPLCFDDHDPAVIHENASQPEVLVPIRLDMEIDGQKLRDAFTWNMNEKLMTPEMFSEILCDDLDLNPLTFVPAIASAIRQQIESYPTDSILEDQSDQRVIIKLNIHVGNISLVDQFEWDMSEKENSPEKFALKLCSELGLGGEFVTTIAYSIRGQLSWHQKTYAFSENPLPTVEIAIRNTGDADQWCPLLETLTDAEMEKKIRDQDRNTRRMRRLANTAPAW
UniProt Q92922: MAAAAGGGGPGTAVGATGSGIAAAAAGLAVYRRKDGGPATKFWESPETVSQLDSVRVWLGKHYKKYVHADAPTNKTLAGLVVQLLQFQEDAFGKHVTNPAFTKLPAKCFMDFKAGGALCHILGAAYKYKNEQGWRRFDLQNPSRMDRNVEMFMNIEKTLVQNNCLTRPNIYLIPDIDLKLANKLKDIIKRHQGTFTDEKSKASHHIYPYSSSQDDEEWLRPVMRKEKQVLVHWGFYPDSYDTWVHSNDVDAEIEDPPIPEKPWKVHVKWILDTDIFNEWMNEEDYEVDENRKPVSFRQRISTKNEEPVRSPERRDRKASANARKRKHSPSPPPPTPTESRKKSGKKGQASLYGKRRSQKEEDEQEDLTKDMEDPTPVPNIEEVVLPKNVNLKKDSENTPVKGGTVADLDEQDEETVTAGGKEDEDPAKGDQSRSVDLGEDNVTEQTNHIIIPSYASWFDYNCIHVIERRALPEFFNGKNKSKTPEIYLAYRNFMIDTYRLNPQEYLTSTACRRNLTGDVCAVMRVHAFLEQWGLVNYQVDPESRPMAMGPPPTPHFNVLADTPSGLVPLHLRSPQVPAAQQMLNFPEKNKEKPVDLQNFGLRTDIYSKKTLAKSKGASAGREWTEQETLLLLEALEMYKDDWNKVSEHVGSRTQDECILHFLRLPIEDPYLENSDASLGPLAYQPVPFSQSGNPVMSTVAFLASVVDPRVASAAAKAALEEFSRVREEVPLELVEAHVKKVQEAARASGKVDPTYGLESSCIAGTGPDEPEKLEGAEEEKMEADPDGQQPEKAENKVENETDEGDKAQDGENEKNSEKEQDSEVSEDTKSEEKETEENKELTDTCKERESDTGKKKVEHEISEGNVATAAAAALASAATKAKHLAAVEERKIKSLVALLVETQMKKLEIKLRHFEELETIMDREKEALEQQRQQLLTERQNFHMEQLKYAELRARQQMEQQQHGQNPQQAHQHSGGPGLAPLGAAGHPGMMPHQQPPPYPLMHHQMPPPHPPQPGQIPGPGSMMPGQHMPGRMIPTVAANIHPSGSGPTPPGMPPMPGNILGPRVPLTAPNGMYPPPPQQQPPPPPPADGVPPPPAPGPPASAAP
UniProt Q92925: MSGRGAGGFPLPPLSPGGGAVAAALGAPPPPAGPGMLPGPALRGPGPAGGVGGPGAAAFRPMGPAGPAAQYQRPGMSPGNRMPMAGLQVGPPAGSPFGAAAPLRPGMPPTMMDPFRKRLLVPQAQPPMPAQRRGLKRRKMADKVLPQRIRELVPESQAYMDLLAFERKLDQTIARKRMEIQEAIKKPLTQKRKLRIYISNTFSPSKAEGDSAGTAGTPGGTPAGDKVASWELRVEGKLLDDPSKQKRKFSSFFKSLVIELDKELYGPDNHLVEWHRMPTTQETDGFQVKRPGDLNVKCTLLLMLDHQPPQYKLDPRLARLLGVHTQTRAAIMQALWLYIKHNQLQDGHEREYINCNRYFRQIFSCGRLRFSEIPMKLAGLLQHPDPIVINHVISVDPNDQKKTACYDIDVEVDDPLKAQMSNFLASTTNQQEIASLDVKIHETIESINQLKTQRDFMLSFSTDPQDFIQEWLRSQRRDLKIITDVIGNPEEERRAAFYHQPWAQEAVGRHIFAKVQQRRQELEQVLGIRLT

These substances were tested against T1, Pregnane X receptor (PXR) in ShP51 cells (human) (UniProt O75469) (assay: affinity purification with mass spectrometry).
T1 sequence: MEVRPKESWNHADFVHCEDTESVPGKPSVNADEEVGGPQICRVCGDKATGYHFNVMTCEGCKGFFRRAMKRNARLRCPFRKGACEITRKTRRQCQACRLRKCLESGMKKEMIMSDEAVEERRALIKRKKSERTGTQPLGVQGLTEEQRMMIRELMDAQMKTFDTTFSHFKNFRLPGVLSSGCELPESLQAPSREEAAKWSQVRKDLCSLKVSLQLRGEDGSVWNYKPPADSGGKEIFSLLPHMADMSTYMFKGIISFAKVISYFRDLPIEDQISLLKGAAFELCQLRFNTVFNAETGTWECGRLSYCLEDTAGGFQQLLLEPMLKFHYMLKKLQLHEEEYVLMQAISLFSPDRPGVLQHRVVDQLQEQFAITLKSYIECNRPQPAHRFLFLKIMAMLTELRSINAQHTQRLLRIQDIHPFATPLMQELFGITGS

Substance	binding
BAF170 (from UniProt Q8TAQ2 1-1214)	binds
BAF57 (from UniProt Q969G3 1-411)	binds
BAF47 (from UniProt Q12824 1-385)	binds

The next lines start with the values.

binding	Substance
binds	BAF155 (from UniProt Q92922 1-1105)
binds	BAF60B (from UniProt Q92925 1-531)
